Literature values as cited in patent US20230146870A1, “METHOD TO QUANTIFY AFFINITY AND SELECTIVITY OF SMALL MOLECULES FOR PROTEINS IN LIVING CELLS” (Ohio State Innovation Foundation, priority 2021, published 2023).
pIC50: −log10 of the molar value.

System: microtubules in fixed cells
Conditions: read-out: IC50 in fixed cells; previously reported; cited from earlier work

For `COc1cc2c(c(OC)c1OC)-c1ccc(OC)c(=O)cc1[C@@H](NC(C)=O)CC2` [colchicine], the pIC50 is listed as 7.66.
